Measurements taken from PubChem BioAssay (NCATS).
Some of the results follow. Further columns of the screen follow, without active or inactive calls. Most of these compounds were active or inconclusive in the main read-out, so they are no random draw. The note in brackets gives the kind of curve behind each potency; many fits are weak.

Assay: qHTS for identification of novel therapeutic agents for treatment of microphthalmiaassociated transcription factor (MiT) renal cell carcinoma (RCC) (AID 1963991)
Conditions: CellTiter-Glo, 48 h; for z-score: stronger effect = lower value
Summary of the method: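 Curves over 11 concentrations were fitted to CellTiter-Glo luminescence, scaled between empty wells (0%) and DMSO (100%) viability. Cells were UOK109, UOK124 and UOK145 TFE3-fusion RCC lines at 500/well, exposed 48 hours at 37 C.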

[1] = TFE3-RCC UOK109 viability, measured here: UOK109 Z-AUC
[2] = TFE3-RCC viability, measured here: UOK124 Z-AUC
[3] = TFE3-RCC viability, measured here: UOK145 Z-AUC
[4] = TFE3-RCC viability, measured here: UOK145 cell viability
[5] = TFE3-RCC viability, measured here: UOK124 cell viability

| SMILES | z-score [1] | z-score [2] | z-score [3] | AC50 [4] | AC50 [5] |
| --- | --- | --- | --- | --- | --- |
| OCc1ccc(-c2ccc(-c3ccc(CO)s3)o2)s1 | -2.15 | 0.754 | -1.25 | 23.5 µM [falling, single point] | – |
| CNC(=O)c1ccc(Nc2cc(Nc3ccccc3S(=O)(=O)C(C)C)c3cc[nH]c3n2)nc1 | -0.0335 | -0.654 | -0.00623 | 18.7 µM [falling, partial curve] | 4.69 µM [falling, full curve] |
| C[C@@]1(C(=O)Nc2ccc(F)nc2)CCCN1c1nc(Nc2cc(C3CC3)[nH]n2)c2cccn2n1 | -0.107 | -1.34 | -0.0771 | 20.9 µM [falling, partial curve] | 1.48 µM [falling, partial curve] |
| CC(C)[C@H](CO)Nc1nc(Nc2ccc(C(=O)O)c(Cl)c2)c2ncn(C(C)C)c2n1 | -0.113 | 0.277 | -1.25 | 26.4 µM [falling, partial curve, poor fit] | 20.9 µM [falling, single point] |
| COc1cc(Cl)cn2c(-c3cccc(NC4CNC4)n3)cnc12 | -0.0436 | 0.185 | -0.599 | 14.8 µM [falling, partial curve] | 23.5 µM [falling, single point] |
| COc1ccc(CCN2CCN(CCCc3ccccc3)CC2)cc1OC | 0.347 | 0.665 | 0.504 | 33.2 µM [falling, partial curve, poor fit] | 23.5 µM [falling, single point] |
| C=CC(=O)Nc1cc(NC(=O)c2ccc(C)c(NC(=O)c3ccno3)c2)cc(C(F)(F)F)c1 | 0.0908 | 0.281 | -0.311 | 23.5 µM [falling, single point] | 18.7 µM [falling, partial curve] |
| COc1cc2ncnc(-n3nc(-c4ccccn4)nc3N)c2cc1OC | 0.568 | -0.123 | 0.0897 | 4.69 µM [falling, full curve] | 5.9 µM [falling, full curve] |
| COc1ccc(C(=O)CC(=O)c2ccc(C(C)(C)C)cc2)cc1 | 0.0737 | 0.308 | 0.53 | 6.62 µM [falling, full curve] | 13.2 µM [falling, partial curve] |
| CC(=O)O[C@]1(C(C)=O)CC[C@H]2[C@@H]3C=C(C)C4=CC(=O)CC[C@]4(C)[C@@H]3CC[C@@]21C | -0.524 | 0.506 | 1.19 | 6.62 µM [falling, full curve] | 33.2 µM [falling, single point] |
| C[C@@H](Oc1ccc2[nH]nc(C=Cc3cnn(CCO)c3)c2c1)c1c(Cl)cncc1Cl | -0.476 | 0.0041 | -1.33 | 23.5 µM [falling, partial curve] | 16.6 µM [falling, partial curve] |
| CN(C)c1ccc2cc(C(=O)N[C@@H](CCCN=C(N)CCl)C(=O)NCc3ccccc3)ccc2c1 | 0.245 | -0.163 | 0.00223 | 16.6 µM [falling, partial curve] | 23.5 µM [falling, partial curve] |
| O=C(C=Cc1cccnc1)NCCCCC1CCN(C(=O)c2ccccc2)CC1 | 0.841 | -2.88 | -3.25 | 0.0166 µM [falling, full curve, poor fit] | 0.0526 µM [falling, full curve] |
| COC1CCC(C(=O)c2ccc3nc4c(cc3c2)CCCO4)CC1 (stereo not drawn) | 0.781 | 0.144 | 0.328 | 20.9 µM [falling, partial curve] | 20.9 µM [falling, partial curve] |
| Cc1[nH]c(C=C2C(=O)Nc3ccc(S(=O)(=O)N(C)c4cccc(Cl)c4)cc32)c(C)c1C(=O)N1CCN(C)CC1 | 0.639 | -0.152 | 0.432 | 26.4 µM [falling, single point] | 16.6 µM [falling, partial curve] |
| CC1(C)C(N(O)C(=O)Nc2ccc(Cl)cc2)N(c2ccc(Cl)cc2)C(=O)N1CC(=O)NN=CC=Cc1ccc([N+](=O)[O-])o1 (stereo not drawn) | -0.0156 | 0.0479 | -0.111 | 26.4 µM [falling, single point] | 11.8 µM [falling, partial curve] |
| CC(C)(C)NC(=O)[C@H]1CN(Cc2cccnc2)CCN1C[C@@H](O)C[C@@H](Cc1ccccc1)C(=O)N[C@H]1c2ccccc2C[C@H]1O | -0.000663 | 0.421 | -3.78 | 0.743 µM [falling, full curve] | 26.4 µM [falling, partial curve] |

| SMILES | z-score [1] | z-score [2] | z-score [3] | AC50 [4] | AC50 [5] |
| --- | --- | --- | --- | --- | --- |
| CC[C@@H]1C=C(C)C[C@H](C)C[C@H](OC)[C@H]2O[C@@](O)(C(=O)C(=O)N3CCCC[C@@H]3C(=O)O[C@H](C(C)=C[C@@H]3CC[C@H](Cl)[C@H](OC)C3)[C@H](C)[C@@H](O)CC1=O)[C@H](C)C[C@H]2OC | 0.532 | 0.567 | 0.485 | 23.5 µM [falling, single point] | 16.6 µM [falling, partial curve] |
| COC[C@@H](c1ccc(C(F)(F)F)cc1)N1CCN(C2(C)CCN(C(=O)c3c(C)ncnc3C)CC2)C[C@H]1C | 0.0911 | 0.221 | -0.039 | 14.8 µM [falling, partial curve] | – |
| CC=C(C(=CC)c1ccc(O)cc1)c1ccc(O)cc1 | 0.761 | 0.158 | -0.294 | 23.5 µM [falling, single point] | 18.7 µM [falling, single point] |
| C[C@H](NC(=O)Cc1cc(F)cc(F)c1)C(=O)N[C@@H]1C(=O)N(C)c2ccccc2-c2ccccc21 | -0.402 | -0.262 | -0.443 | 14.8 µM [falling, partial curve] | 37.2 µM [falling, single point] |
| COc1cccc2cc(-c3nc(C4CCC(C(=O)O)CC4)n4ncnc(N)c34)[nH]c12 (stereo not drawn) | -0.32 | -0.42 | -0.295 | 5.26 µM [falling, partial curve] | 11.8 µM [falling, full curve] |
| Cc1cc(CS(=O)(=O)c2ccccc2)cc(OCc2ccc(CN3CCC[C@H]3CO)cc2)c1 | -0.173 | -1.44 | 0.652 | 14.8 µM [falling, partial curve] | 33.2 µM [falling, partial curve, poor fit] |
| CCC[C@H](NC(=O)C(C#N)=Cc1cccc(Br)n1)c1ccccc1 | -0.452 | -0.358 | -0.239 | 8.33 µM [falling, full curve] | 2.64 µM [falling, full curve] |
| NCc1c[nH]c(=S)n1[C@H]1CCc2c(F)cc(F)cc2C1 | 0.598 | 0.386 | 0.643 | 23.5 µM [falling, partial curve, poor fit] | 23.5 µM [falling, single point] |
| COc1c(Cl)cc2c([nH]c3cnccc32)c1NC(=O)c1cccnc1C | -0.177 | -0.0359 | 0.53 | 3.32 µM [falling, full curve] | 23.5 µM [falling, partial curve] |
| CN(C)C(=O)COC(=O)Cc1ccc(OC(=O)c2ccc(N=C(N)N)cc2)cc1 | -0.36 | -2.53 | 0.196 | 20.9 µM [falling, partial curve] | 37.2 µM [falling, partial curve, poor fit] |
| CN(C)C(=O)[C@H](O)[C@H](Cc1ccccc1)NC(=O)c1cc2cc(Cl)ccc2[nH]1 | -0.431 | -0.175 | 0.371 | 14.8 µM [falling, partial curve] | 2.35 µM [falling, partial curve, poor fit] |
| CCCS(=O)(=O)Nc1ccc(F)c(C(=O)c2c[nH]c3ncc(Cl)cc23)c1F | -0.119 | 0.492 | 0.146 | 18.7 µM [falling, partial curve] | 18.7 µM [falling, partial curve, poor fit] |
| NC(=O)c1nnn(Cc2cc(Cl)c(C(=O)c3ccc(Cl)cc3)c(Cl)c2)c1N | 0.669 | 0.588 | 0.514 | 29.6 µM [falling, single point] | 20.9 µM [falling, partial curve] |
| CN(C1CCc2c(c3ccccc3n2CC(=O)O)C1)S(=O)(=O)c1ccc(F)cc1 (stereo not drawn) | -0.494 | 0.607 | -0.142 | 1.87 µM [falling, full curve] | 10.5 µM [falling, partial curve, poor fit] |
| CO[C@H]1C[C@@H]2CC[C@@H](C)[C@@](O)(O2)C(=O)C(=O)N2CCCC[C@@H]2C(=O)O[C@H]([C@H](C)C[C@@H]2CC[C@H](OC(=O)C(C)(CO)CO)[C@H](OC)C2)CC(=O)[C@H](C)C=C(C)[C@@H](O)[C@@H](OC)C(=O)[C@H](C)C[C@H](C)C=CC=CC=C1C | -0.0641 | 0.132 | -0.791 | 23.5 µM [falling, partial curve, poor fit] | 33.2 µM [falling, single point] |
| CNC(=O)c1ccccc1Sc1ccc2c(C=Cc3ccccn3)n[nH]c2c1 | -0.121 | -0.739 | 0.165 | 14.8 µM [falling, partial curve, poor fit] | 20.9 µM [falling, partial curve] |
| Nc1nc(N)c2nc(-c3cccc(O)c3)c(-c3cccc(O)c3)nc2n1 | -0.934 | -0.735 | 0.249 | 16.6 µM [falling, partial curve] | 29.6 µM [falling, partial curve, poor fit] |

Copied from above, 2 compounds:

| SMILES | z-score [1] | z-score [2] | z-score [3] | AC50 [4] | AC50 [5] |
| --- | --- | --- | --- | --- | --- |
| Cc1cc(CS(=O)(=O)c2ccccc2)cc(OCc2ccc(CN3CCC[C@H]3CO)cc2)c1 | -0.173 | -1.44 | 0.652 | 14.8 µM [falling, partial curve] | 33.2 µM [falling, partial curve, poor fit] |
| CCC[C@H](NC(=O)C(C#N)=Cc1cccc(Br)n1)c1ccccc1 | -0.452 | -0.358 | -0.239 | 8.33 µM [falling, full curve] | 2.64 µM [falling, full curve] |
